Results: the supplement of paper PMC11348887
Counter-ions that a name gives are not always drawn. Some of the results follow. Most entries show no effect beyond the scatter of the controls.

Assays:
Conditions in all cases: 5 µM; treatment: days 7-14 after plating, readout day 21
[1] = tested on: hPSC-derived cortical neurons (WA09); experiment: nucleus area z-score vs screen plate; higher = larger nuclei (more mature)
[2] = tested on: hPSC-derived cortical neurons (WA09); experiment: total neurite length per nucleus (MAP2) z-score; higher = more neurite growth
[3] = tested on: hPSC-derived cortical neurons (WA09); experiment: nucleus roundness z-score vs screen plate; higher = rounder nuclei (more mature)
[4] = tested on: hPSC-derived cortical neurons (WA09); experiment: KCl-induced FOS+/EGR-1+ double-positive nuclei fraction z-score (KCl minus unstimulated); higher = stronger activity-induced IEG response

| Structure (SMILES) | nucleus area z-score [1] | total neurite length per nucleus (z-score) [2] | nucleus roundness z-score [3] | KCl-induced FOS+/EGR-1+ double-positive nuclei fraction z-score [4] |
| --- | --- | --- | --- | --- |
| CC1(C)CNc2cc(NC(=O)c3cccnc3NCc3ccncc3)ccc21 [Motesanib Diphosphate (AMG-706)] | -0.451 | 2.5 | 0.195 | -0.468 |
| Cn1ncc(Cl)c1-c1cc(C(=O)N[C@H](CN)Cc2ccc(F)c(F)c2)oc1Cl | -8.94 | -4.22 | -2.45 | -1.36 |
| O=c1ncn2nc(Sc3ccc(F)cc3F)ccc2c1-c1c(Cl)cccc1Cl | 1.17 | -0.0342 | -0.457 | 1.63 |
| CN1CCN(c2ccc3nc(-c4c(N)c5c(F)cccc5[nH]c4=O)[nH]c3c2)CC1 [Dovitinib (TKI-258) Dilactic Acid] | -7.39 | -2.7 | -4.92 | -0.995 |
| CC(C)C[C@H](NC(=O)[C@@H](Cc1cccc2ccccc12)NC(=O)[C@H](Cc1ccc(O)cc1)NC(=O)[C@H](CO)NC(=O)[C@H](Cc1c[nH]c2ccccc12)NC(=O)[C@H](Cc1cnc[nH]1)NC(=O)[C@@H]1CCC(=O)N1)C(=O)N[C@@H](CCCNC(=N)N)C(=O)N1CCC[C@H]1C(=O)NCC(N)=O [Nafarelin Acetate] | 0.0512 | 1.19 | -0.573 | 1.16 |
| CNCC[C@H](Oc1cccc2ccccc12)c1cccs1 [Duloxetine HCl] | -1.69 | -0.675 | -0.379 | -0.67 |
| Nc1nc2[nH]cc(CCc3ccc(C(=O)N[C@@H](CCC(=O)O)C(=O)O)cc3)c2c(=O)[nH]1 [Pemetrexed Disodium Hydrate] | 0.935 | -0.121 | -0.503 | -0.322 |
| Nc1ncnc2c1c(I)cn2[C@@H]1O[C@H](CO)[C@@H](O)[C@H]1O [5-Iodotubercidin] | -2.73 | -1.83 | -4.1 | -1.04 |
| NNC(=O)c1ccncc1.Nc1ccc(C(=O)O)c(O)c1 [Pasiniazid] | 0.268 | 0.313 | 0.606 | -0.898 |
| CCCNS(=O)(=O)Nc1ncnc(OCCOc2ncc(Br)cn2)c1-c1ccc(Br)cc1 [Macitentan] | 1.55 | 2.92 | 1.5 | 0.0361 |
| CCCCc1nc(Cl)c(CO)n1Cc1ccc(-c2ccccc2-c2nnn[nH]2)cc1 [Losartan Potassium (DuP 753)] | -0.704 | 0.631 | 0.0365 | 0.237 |
| Oc1c(I)cc(Cl)c2cccnc12 [Clioquinol] | -0.394 | 1.41 | 0.74 | 1 |
| O=c1cc(-c2ccccc2)oc2cc(O)c(O)c(O)c12 [Baicalein] | 0.109 | -0.423 | -0.39 | -0.522 |
| CC(C)Cc1ccc(C(C)C(=O)O)cc1 (configuration not stated) [Ibuprofen Lysine] | 0.613 | 0.457 | 0.634 | 1.74 |
| O=S(=O)(O)CCS [Mesna] | -0.147 | -0.275 | 1.12 | 0.203 |
| O=C1NC(=O)C(c2ccccc2[N+](=O)[O-])=C1Nc1ccc(O)c(Cl)c1 | 0.0596 | 0.196 | 0.0425 | -0.629 |
| CCNC(=O)Nc1ccc(-c2nc3c(c(N4CCOC[C@@H]4C)n2)CCN(C2COC2)C3)cc1 | -4.28 | -1.61 | -5.56 | -1.03 |
| CCOc1ccc(Cc2cc([C@@H]3O[C@H](SC)[C@@H](O)[C@H](O)[C@H]3O)ccc2Cl)cc1 [Sotagliflozin (LX4211)] | 1.2 | 0.284 | -0.373 | -0.831 |
| Cc1nc(=O)c2cc(CN(C)c3ccc(C(=O)N[C@@H](CCC(=O)O)C(=O)O)s3)ccc2[nH]1 [Raltitrexed] | -0.208 | 0.464 | 0.947 | 0.869 |
| Cc1noc(NS(=O)(=O)c2ccc(N)cc2)c1C [Sulfisoxazole] | -0.179 | 0.718 | -0.412 | 0.131 |

| Structure (SMILES) | nucleus area z-score [1] | total neurite length per nucleus (z-score) [2] | nucleus roundness z-score [3] | KCl-induced FOS+/EGR-1+ double-positive nuclei fraction z-score [4] |
| --- | --- | --- | --- | --- |
| Cc1cc(NS(=O)(=O)c2ccc(N)cc2)no1 [Sulfamethoxazole] | 0.257 | 1.62 | 0.29 | 0.192 |
| CNC(=O)Nc1ccc(-c2nc(N3CC4CCC(C3)O4)c3cnn(C4CCC5(CC4)OCCO5)c3n2)cc1 | -3.96 | -1 | -3.47 | -1.14 |
| O=C(NOCCO)c1ccc2cncn2c1Nc1ccc(I)cc1F | 0.0742 | -0.00517 | -0.508 | -0.334 |
| O=C(COc1ccc(C(=O)c2ccccc2)cc1)NC1CCN(Cc2ccccc2)CC1 [AdipoRon] | 1.15 | -0.159 | 0.555 | 0.96 |
| OC[C@@H](O)[C@@H](O)[C@H](O)[C@H](O)CO [D-Mannitol] | 0.288 | 0.0518 | -0.188 | 0.532 |
| O=c1[nH]cnc2c1ncn2[C@H]1CC[C@@H](CO)O1 [Didanosine] | 0.572 | -0.719 | -0.0521 | -0.15 |
| CCN(CC)CCOc1ccc(Nc2ncc3cc(-c4c(Cl)cccc4Cl)c(=O)n(C)c3n2)cc1 | -2.42 | -0.66 | -4.35 | 1.08 |
| C=C1/C(=C\C=C2/CCC[C@]3(C)[C@@H]([C@H](C)/C=C/[C@H](C)C(C)C)CC[C@@H]23)C[C@@H](O)C[C@@H]1O [Doxercalciferol] | 0.193 | 0.00194 | -0.0189 | 0.892 |
| CCCCOC(=O)c1ccc(O)cc1 [Butylparaben] | -0.366 | -1.22 | -0.823 | -0.716 |
| NS(=O)(=O)Cc1noc2ccccc12 [Zonisamide] | 0.346 | 0.585 | 0.0538 | 0.576 |
| N#Cc1cccc(-c2c[nH]c3ncnc(N4CCOCC4)c23)c1 | 0.266 | 1.12 | 0.915 | 1.02 |
| CC1=C(C(=O)OC(C)C)C(c2cccc([N+](=O)[O-])c2)C(C(=O)OC2CN(C(c3ccccc3)c3ccccc3)C2)=C(N)N1 (configuration not stated) [Azelnidipine] | -7.73 | -2.52 | -0.0945 | -0.139 |
| O=C(N/N=C/c1ccc([N+](=O)[O-])o1)c1ccc(O)cc1 [Nifuroxazide] | 1.36 | -0.219 | 0.0132 | 0.534 |
| COc1ccc2c3c1O[C@H]1C[C@@H](O)C=C[C@@]31CCN(C)C2 [Galanthamine HBr] | 0.142 | 1.15 | 0.617 | 0.801 |
| Nc1[nH]cnc2ncnc1-2 [Adenine HCl] | 0.5 | 0.661 | 0.299 | 0.693 |
| C[C@H](N)[C@H](O)c1cccc(O)c1 [Metaraminol Bitartrate] | 0.394 | 0.671 | -0.227 | 1.46 |
| Cc1coc2c1C(=O)C(=O)c1c-2ccc2c(C)cccc12 [Tanshinone I] | -0.69 | -2.51 | -2.09 | 1.29 |
| CCc1ccc(OCc2ccccc2C(=O)Nc2ccc3nc(C)cc(N)c3c2)cc1 | -14.7 | -5.47 | 0.5 | -0.176 |
| CCC[C@@H]1C[C@@H](C(=O)N[C@@H]([C@H]2O[C@H](SC)[C@H](O)[C@@H](O)[C@H]2O)[C@H](C)Cl)N(C)C1 [Clindamycin] | -1.86 | 0.424 | -0.0153 | -0.303 |
| CC1(C)CC(=O)c2c(C(F)(F)F)nn(-c3ccc(C(N)=O)c(N[C@H]4CC[C@H](OC(=O)CN)CC4)c3)c2C1 | -9.75 | -4.84 | -3.3 | -1.66 |

Whole records, looked up by structure. Order of values: nucleus area z-score [1] | total neurite length per nucleus (z-score) [2] | nucleus roundness z-score [3] | KCl-induced FOS+/EGR-1+ double-positive nuclei fraction z-score [4]
C=C1/C(=C\C=C2/CCC[C@]3(C)[C@@H]([C@H](C)/C=C/[C@H](C)C(C)C)CC[C@@H]23)C[C@@H](O)C[C@@H]1O [Doxercalciferol] in the list: 0.193 | 0.00194 | -0.0189 | 0.892
CCOc1ccc(Cc2cc([C@@H]3O[C@H](SC)[C@@H](O)[C@H](O)[C@H]3O)ccc2Cl)cc1 [Sotagliflozin (LX4211)] in the list: 1.2 | 0.284 | -0.373 | -0.831

Next part

| Structure (SMILES) | nucleus area z-score [1] | total neurite length per nucleus (z-score) [2] | nucleus roundness z-score [3] | KCl-induced FOS+/EGR-1+ double-positive nuclei fraction z-score [4] |
| --- | --- | --- | --- | --- |
| CCCC1O[C@@H]2C[C@H]3[C@@H]4CCC5=CC(=O)C=C[C@]5(C)[C@H]4[C@@H](O)C[C@]3(C)[C@]2(C(=O)CO)O1 (some centres not stated) [Budesonide] | 1.06 | 0.0499 | 0.53 | 0.307 |
| CN1CCOC(c2ccccc2)c2ccccc2C1 (configuration not stated) [Nefopam HCl] | 0.0321 | -0.728 | -0.931 | -0.0925 |
| Cc1nc(C(=O)NCC(=O)O)c(O)c2ccc(Oc3ccccc3)cc12 | 1.77 | 0.19 | 1.41 | 1.75 |
| Cc1cccc(Nc2nc(NC3CCCCC3N)ncc2C(N)=O)c1 (configuration not stated) | -0.0587 | 0.381 | -0.116 | -0.975 |
| CNCc1ccc(-c2[nH]c3cc(F)cc4c3c2CCNC4=O)cc1 | 1.56 | -0.252 | -0.353 | 0.828 |
| CN(C)C(=O)c1ccc(S(=O)(=O)c2ccc(NC(=O)[C@@](C)(O)C(F)(F)F)c(Cl)c2)cc1 | 0.917 | 2.33 | 0.739 | 0.353 |
| O=C(O)CCCCCCCC(=O)O [Azelaic acid] | -0.425 | -0.473 | -0.267 | -0.1 |
| CN1CC[C@H](c2c(O)cc(O)c3c(=O)cc(-c4ccccc4Cl)oc23)[C@H](O)C1 [Flavopiridol (Alvocidib)] | -18.4 | -5.67 | -8.9 | -0.866 |
| CCc1cc(Nc2nccc(-c3c(-c4ccc(OC)c(C(=O)Nc5c(F)cccc5F)c4)nc4ccccn34)n2)c(OC)cc1N1CCC(N2CCN(S(C)(=O)=O)CC2)CC1 | -2.4 | -1.83 | -1.78 | -0.687 |
| CC(=O)O[C@]1(C(C)=O)CC[C@H]2[C@@H]3C=C(Cl)C4=CC(=O)CC[C@]4(C)[C@H]3CC[C@@]21C [Chlormadinone acetate] | 0.636 | 0.655 | 0.262 | 0.952 |
| CC(C)(c1ccc(OCC(O)CO)cc1)c1ccc(OCC(O)CCl)cc1 (configuration not stated) | 0.265 | 0.319 | -0.243 | 0.989 |
| CCN(CC)CCNC(=O)c1c(C)[nH]c(/C=C2\C(=O)Nc3ccc(F)cc32)c1C [Sunitinib Malate] | -5.54 | -2.25 | -2.57 | -0.05 |
| Cc1ncc(-c2ccnc(Nc3ccc(S(C)(=O)=O)cc3)n2)n1C(C)C | -2.34 | -2.53 | -1.42 | -0.584 |
| O=C1OC(CN2CCOCC2)CN1/N=C/c1ccc([N+](=O)[O-])o1 (configuration not stated) [Furaltadone HCl] | 0.199 | 0.206 | 0.0339 | -0.155 |
| Cc1ccc(S(=O)(=O)NC(=O)NN2CCCCCC2)cc1 [Tolazamide] | 2.35 | -0.5 | 0.129 | -0.129 |
| Cc1cccc(Nc2ccccc2C(=O)O)c1C [Mefenamic Acid] | -0.257 | 0.467 | 0.784 | 1.25 |
| c1ccc(CN(CC2=NCCN2)c2ccccc2)cc1 [Antazoline HCl] | -0.24 | 0.215 | 0.555 | -0.0213 |
| Cc1c(Cn2c(C)nc3c(C(=O)O)cc(N4CCOCC4)cc32)cccc1C(F)(F)F | 0.84 | 1.08 | 0.38 | 0.439 |
